{"sequences": {"note": "The chains behind the UniProt entries cited, without tags or fusion partners. Where a name states a change or a piece, a line headed by the entry shows the natural chain unless it says otherwise.", "UniProt O94782": "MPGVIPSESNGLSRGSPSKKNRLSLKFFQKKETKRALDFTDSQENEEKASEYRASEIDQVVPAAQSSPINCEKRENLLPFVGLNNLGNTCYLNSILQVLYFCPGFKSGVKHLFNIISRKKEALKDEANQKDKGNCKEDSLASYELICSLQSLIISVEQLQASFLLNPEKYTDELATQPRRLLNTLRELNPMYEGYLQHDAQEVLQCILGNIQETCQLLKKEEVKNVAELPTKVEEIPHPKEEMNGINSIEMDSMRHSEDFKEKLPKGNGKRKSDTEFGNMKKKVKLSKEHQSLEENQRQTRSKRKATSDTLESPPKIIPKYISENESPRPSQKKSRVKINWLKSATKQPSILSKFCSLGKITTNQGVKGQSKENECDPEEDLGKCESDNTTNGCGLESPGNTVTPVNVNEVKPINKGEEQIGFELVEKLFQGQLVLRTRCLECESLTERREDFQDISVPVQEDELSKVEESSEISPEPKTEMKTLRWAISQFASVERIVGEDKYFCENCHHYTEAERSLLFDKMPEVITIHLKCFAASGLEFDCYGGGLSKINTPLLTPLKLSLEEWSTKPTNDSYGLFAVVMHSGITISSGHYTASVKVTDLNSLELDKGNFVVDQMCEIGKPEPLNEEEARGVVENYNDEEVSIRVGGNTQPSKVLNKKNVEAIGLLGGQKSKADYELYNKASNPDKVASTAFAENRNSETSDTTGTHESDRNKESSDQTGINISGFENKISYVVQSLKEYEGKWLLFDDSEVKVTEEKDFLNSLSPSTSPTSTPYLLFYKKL"}, "source": "PubChem BioAssay AID743255", "about": "(National Center for Advancing Translational Sciences (NCATS), 2014)", "note": "Hit rate of the full screen: of about 390,000 compounds, about 910 (0.23%) were called active. Inconclusive means that the source gave no clear call. Such entries were picked first, then a sample of the others. Calls come from the whole dose curve; as a rule, active = well fitted inhibition curve with a large enough effect; inconclusive = small, poorly fitted or top-dose-only effect; inactive = no such curve, though single readings can be large or run the other way. Where the call is inconclusive, the potency comes from a doubtful curve fit. % is set by controls: 0 for no effect and ±100 for the full control effect; potency is the fitted concentration of half-maximal effect.", "data": [{"molecular_target": "Ubiquitin carboxyl-terminal hydrolase 1 (Homo sapiens) (UniProt O94782)", "experiment": "Inhibitors of USP1/UAF1: Primary Screen; note: nearly all actives have a fitted effect of over 60% in size", "conditions": "recombinant USP1/UAF1, Ub-Rhodamine cleavage fluorescence; activity change, negative = inhibition: at 57.1 µM (top of the series)", "in_short": "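High-throughput fluorogenic screen: 1nM USP1/UAF1 complex, Ub-Rho substrate 150nM final, 50mM HEPES pH 7.8 with 0.5mM EDTA, 0.1 mg/ml BSA, 1mM TCEP and 0.01% Tween-20.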", "values": [{"smiles": "O=C(COc1ccc(S(=O)(=O)N2CCCCC2)cc1)N1CCCC1", "Potency": "inconclusive: 44.7 µM [inhibitor, partial curve, poor fit]"}, {"smiles": "COc1ccc(C2C3=C(CCCC3=O)Nc3nc(SCc4ccc(C(=O)O)cc4)nn32)cc1OC", "note": "(stereo not drawn)", "Potency": "inconclusive: 7.08 µM [inhibitor, full curve, poor fit]"}, {"smiles": "COc1ccccc1CNC(=O)C1CCN(Cc2cc3ccccc3n2Cc2cccc(C)c2)CC1", "Potency": "inconclusive: 7.08 µM [inhibitor, partial curve, poor fit]"}, {"smiles": "Cc1ccc(S(=O)(=O)Nc2cc(C)on2)cc1", "Potency": "inconclusive: 8.91 µM [inhibitor, single point]"}, {"smiles": "C[C@H]1CN([C@@H](C)CO)C(=O)CCCn2nncc2CO[C@@H]1CN(C)C(=O)NC1CCCCC1", "Potency": "inconclusive: 0.282 µM [inhibitor, full curve, poor fit]"}, {"smiles": "CCOC(=O)c1cccc(NC(=O)Nc2ccc3c(c2)N(C)C(=O)c2ccccc2S3)c1", "Potency": "inconclusive: 25.1 µM [inhibitor, partial curve]"}, {"smiles": "O=C(CCCN1CCC(O)(c2cccc(C(F)(F)F)c2)CC1)c1ccc(F)cc1", "Potency": "inconclusive: 0.178 µM [inhibitor, full curve, poor fit]"}, {"smiles": "CC(C)c1cc2c(c(O)c1O)[C@@]13CCCC(C)(C)C1CC2OC3=O", "note": "(stereo partly drawn)", "Potency": "inactive"}, {"smiles": "CCSc1ncc(Cl)c(C(=O)N(Cc2ccc(C(C)(C)C)cc2)C2CCS(=O)(=O)C2)n1", "note": "(stereo not drawn)", "Potency": "inconclusive: 0.891 µM [inhibitor, full curve, poor fit]"}, {"smiles": "O=[N+]([O-])c1cc(/C=N\\O)ccc1Oc1ccc(F)cc1", "Potency": "inactive"}, {"smiles": "Cc1c(C=O)c2ccccn2c1C(=O)c1cccs1", "Potency": "inconclusive: 0.631 µM [inhibitor, full curve, poor fit]"}, {"smiles": "COc1ccc(CN2C(=O)NC3(CCCc4ccccc43)C2=O)cc1F", "note": "(stereo not drawn)", "Potency": "inconclusive: 1.12 µM [inhibitor, full curve, poor fit]"}, {"smiles": "O=C(NNC(=S)NCc1ccco1)c1ccc(S(=O)(=O)N2CCOCC2)cc1", "Potency": "inconclusive: 1.26 µM [inhibitor, full curve, poor fit]"}, {"smiles": "COc1ccc(S(=O)(=O)Cc2ccc(C(=O)N3CCCC3)o2)cc1", "Potency": "inconclusive: 0.708 µM [inhibitor, full curve, poor fit]"}, {"smiles": "O=C(Nc1cccc(-c2nc3ccccc3[nH]2)c1)c1c(F)cccc1F", "activity change, negative = inhibition": "inconclusive: -38.7% [inhibitor]"}, {"smiles": "C/C=C(\\C)CN1CCC(Oc2cc(C(=O)NC3CC3)ccc2OC)CC1", "Potency": "inactive"}, {"smiles": "O=C(CCl)Nc1cc(S(=O)(=O)N2CCOCC2)ccc1N1CCOCC1", "Potency": "inconclusive: 0.398 µM [inhibitor, full curve, poor fit]"}, {"smiles": "CC(C)CCn1nnnc1CN1CCN(c2ccc(F)cc2)CC1", "Potency": "inconclusive: 1 µM [inhibitor, full curve, poor fit]"}, {"smiles": "Cc1ccc(S(=O)(=O)Nc2ccc3nc(-c4cccn4C)[nH]c3c2)cc1", "Potency": "inactive"}, {"smiles": "COc1ccc(C(=O)Oc2ccc(/C=N/NC(=O)c3ccccc3OC)cc2[N+](=O)[O-])cc1", "Potency": "inactive"}, {"smiles": "CC1Cc2ccccc2N1CC(=O)NC(=O)NC1CCCC1", "note": "(stereo not drawn)", "Potency": "inconclusive: 100 µM [inhibitor, partial curve, poor fit]"}, {"smiles": "COc1cccc(C2CC(c3cccc(Br)c3)n3nc(N)nc3N2)c1", "note": "(stereo not drawn)", "Potency": "inconclusive: 50.1 µM [inhibitor, partial curve, poor fit]"}, {"smiles": "Cc1ccc(NC(=O)c2c(C(=O)Nc3ccccc3)sc3nc(C)cc(=O)n23)cc1", "Potency": "inconclusive: 0.501 µM [inhibitor, full curve, poor fit]"}, {"smiles": "COc1ccc(N2CCN(C(=O)c3cn(C)c4ccc(S(=O)(=O)N(C)C5CCCCC5)cc4c3=O)CC2)cc1", "Potency": "inconclusive: 0.708 µM [inhibitor, full curve, poor fit]"}, {"smiles": "O=C1c2ccccc2C(=O)N1CCCCNc1ccccc1", "Potency": "inconclusive: 0.316 µM [inhibitor, full curve]"}, {"smiles": "CCc1c(C)sc(NC(=O)c2cc(C)no2)c1C#N", "Potency": "inconclusive: 39.8 µM [inhibitor, single point]"}, {"smiles": "CCN1CCc2c(sc(NC(=O)Nc3ccc(Cl)c(Cl)c3)c2C(N)=O)C1", "Potency": "inconclusive: 3.16 µM [inhibitor, full curve, poor fit]"}, {"smiles": "O=C(Cn1cnc2onc(-c3ccc(F)cc3)c2c1=O)N1CCN(c2ccccc2F)CC1", "Potency": "inactive"}, {"smiles": "C=C(C)C1CCC(C)=C1CC(C)(C)/C=N\\n1cnnc1", "note": "(stereo not drawn)", "Potency": "inconclusive: 17.8 µM [inhibitor, partial curve, poor fit]"}, {"smiles": "CN(Cc1ccc(Cl)cc1)C(=O)c1cc(S(=O)(=O)N2CCOCC2)ccc1N1CCCC1", "Potency": "inconclusive: 0.708 µM [inhibitor, full curve]"}, {"smiles": "CN1C[C@@H]2[C@@H]3C(=O)N(C)C(=O)[C@@H]3[C@](C)(C1=O)N2C(=O)c1ccc(Cl)c(Cl)c1", "Potency": "inconclusive: 44.7 µM [inhibitor, partial curve, poor fit]"}, {"smiles": "Cc1ccc(-c2nc3cnccn3c2Nc2ccccc2)o1", "Potency": "inactive"}, {"smiles": "Cc1nn(CCC(=O)NCc2cccc(Br)c2)c(=O)c2nn(-c3ccccc3)c(C)c12", "Potency": "inconclusive: 1260 µM [inhibitor, partial curve, poor fit]"}, {"smiles": "COc1ccc(-c2cn(-c3ccc(C)cc3)c(S(=O)(=O)CC(=O)Nc3ccccc3)n2)cc1", "Potency": "inactive"}, {"smiles": "COc1cc2c3nnc(-c4ccc(F)cc4)c-3cn(Cc3cccc(F)c3)c2cc1OC", "Potency": "inconclusive: 25.1 µM [inhibitor, partial curve]"}, {"smiles": "CCOC(=O)CN(C(=O)COc1nc(C)cc(C)c1C#N)c1ccc(Cl)cc1", "Potency": "inconclusive: 10 µM [inhibitor, partial curve, poor fit]"}, {"smiles": "Cc1ccc(S(=O)(=O)N2CCN(c3cc4c(cc3[N+](=O)[O-])n(C)c(=O)n4C)CC2)cc1", "Potency": "inconclusive: 0.631 µM [inhibitor, full curve, poor fit]"}, {"smiles": "COCCNC(=O)c1ccc2c(c1)N(Cc1ccc(C(F)(F)F)cc1)C(=O)c1ccccc1S2", "Potency": "inconclusive: 50.1 µM [inhibitor, partial curve, poor fit]"}]}]}
